# The list shows a part of the results.
# Target: T1, OsSMF1 (Oryza sativa, UniProt Q6ZLB0 1-436)
# T1 sequence: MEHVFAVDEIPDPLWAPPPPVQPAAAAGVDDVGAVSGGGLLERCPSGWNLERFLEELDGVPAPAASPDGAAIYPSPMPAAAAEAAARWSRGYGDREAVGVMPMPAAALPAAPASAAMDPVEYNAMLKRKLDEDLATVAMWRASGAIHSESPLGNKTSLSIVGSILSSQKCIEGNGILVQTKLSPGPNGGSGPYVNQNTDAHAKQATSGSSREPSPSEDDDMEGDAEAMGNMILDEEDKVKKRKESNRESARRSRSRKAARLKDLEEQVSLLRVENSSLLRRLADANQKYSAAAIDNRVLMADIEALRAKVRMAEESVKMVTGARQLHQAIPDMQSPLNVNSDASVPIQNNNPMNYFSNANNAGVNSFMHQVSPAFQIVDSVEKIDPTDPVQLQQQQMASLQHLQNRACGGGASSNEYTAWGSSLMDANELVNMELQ
# Assay: protein-binding microarray (RPBM); PBS, 2% BSA, 51.3 ng/ul salmon testes DNA, 50 uM zinc acetate, 200 nM TF, 25 C, 1 h; high values mean tight binding
# Conditions: protein: recombinant; tags: N-terminal polyhistidine and DsRed monomer fusion (pET32a); chain copies: 2; label: CyDye5-dUTP incorporated in the synthesized complementary strand; 3' TTTTT single-stranded linker to array surface; dsDNA, one strand shown
# Procedure, shortened: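 The binding signal is fluorescence intensity per array feature (arbitrary units). Readings came from an Axon 4000B scanner after a washed, 2% BSA-blocked, double-stranded custom Agilent array had been incubated for 1 h at 25 °C with 200 nM protein and 50 µM zinc acetate. The protein was a Ni–NTA-purified transcription factor fused N-terminally to polyhistidine and DsRed, expressed in E. coli BL21-CodonPlus.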
row,Sequence,binding signal
1,CACACGCAAAGCTGCAAAAGTTGAATTCCATTATTCCACACGGAGTCACCTAGTGCAG,65500 fluorescence intensity (a.u.)
2,CCGGGGTGTCAGAAATCCAGGCCCACCCGTCAGCGACGCGCGGAGTCACCTAGTGCAG,4130 fluorescence intensity (a.u.)
3,ATTCATTGTAATAGGATGCGTCACCTTCATCGAAAATTTCCGGAGTCACCTAGTGCAG,4940 fluorescence intensity (a.u.)
4,GAGGATGACGATGACGACAACCTACTGTAGCACGGGTGAACGGAGTCACCTAGTGCAG,6210 fluorescence intensity (a.u.)
5,GAATCATTTCCATGTAGAACTTGAAAATATCGGACCCCGTCGGAGTCACCTAGTGCAG,13800 fluorescence intensity (a.u.)
6,ACGGGCGTACTACGTGTTACGGCTGAACCAATCTATCCCCCGGAGTCACCTAGTGCAG,5320 fluorescence intensity (a.u.)
7,ATTTTGACGCAATCGCAAGCAGCGGTGCACCATTTGCACACGGAGTCACCTAGTGCAG,3500 fluorescence intensity (a.u.)
8,ATTACGCGTGTCTGTCAGATGCGTCTGCTATGTCAGGAATCGGAGTCACCTAGTGCAG,3270 fluorescence intensity (a.u.)
9,GGGTGGGTGGAGACTGGAGAGTCCTCTCCGCGAGAGGCTGCGGAGTCACCTAGTGCAG,3200 fluorescence intensity (a.u.)
10,CACCGCGCCTACGTGGCGTGGCTCGCCTTCCGCATCGACTCGGAGTCACCTAGTGCAG,24900 fluorescence intensity (a.u.)
11,GTCCGCGCGCACAGGTAAGGATCCGATTCCGCTCATGAGCCGGAGTCACCTAGTGCAG,3770 fluorescence intensity (a.u.)
12,TAATCTGTTTCCGAACTGATTCCACACTGACTCCGCACCACGGAGTCACCTAGTGCAG,3700 fluorescence intensity (a.u.)
13,GGAAGGGGCTACTATAATCAGTGTGCAGTAGAAAATGACTCGGAGTCACCTAGTGCAG,3910 fluorescence intensity (a.u.)
14,CTCCATTCAGACTGAAGGTAGCACATTTGCGGTCGTGTCGCGGAGTCACCTAGTGCAG,3650 fluorescence intensity (a.u.)
15,CCTACCTGGCTTTCAGCTAATCAGCCACCTACCAAATAATCGGAGTCACCTAGTGCAG,31200 fluorescence intensity (a.u.)
16,CTCTGTGGTCACGCCCCACACCGGCAGCCGCGTCCTCCGTCGGAGTCACCTAGTGCAG,3560 fluorescence intensity (a.u.)
17,GATTCTGTTCACCTGCGTGCACAGGTGTACGGGACGAGCACGGAGTCACCTAGTGCAG,5870 fluorescence intensity (a.u.)
18,AAAGTCAGAGGAGCCTCGTCCAAGTACTACCACTAGCATGCGGAGTCACCTAGTGCAG,3150 fluorescence intensity (a.u.)
19,TGAGATGGCAGTAGCAGGTACTATGGAGATTTCTCGTTCACGGAGTCACCTAGTGCAG,19000 fluorescence intensity (a.u.)
20,CCCACGGCCGCCACGCCACTGCCAGTCAACAGCTGCACCTCGGAGTCACCTAGTGCAG,7740 fluorescence intensity (a.u.)
21,TAGTTCTGAAGTCTGAAATCCTTGCGGTCCTTCACCGCCTCGGAGTCACCTAGTGCAG,55000 fluorescence intensity (a.u.)

# Two consecutive records out of the list so far, for reference:
row,Sequence,binding signal
9,GGGTGGGTGGAGACTGGAGAGTCCTCTCCGCGAGAGGCTGCGGAGTCACCTAGTGCAG,3200 fluorescence intensity (a.u.)
10,CACCGCGCCTACGTGGCGTGGCTCGCCTTCCGCATCGACTCGGAGTCACCTAGTGCAG,24900 fluorescence intensity (a.u.)

# Further records

row,Sequence,binding signal
1,GCTTGCCGCCGTCACAGAGTCACACACACCCTGTCGAGCGCGGAGTCACCTAGTGCAG,4600 fluorescence intensity (a.u.)
2,CCCGGCTTTGCCGGCGGCGGCGAGGCTGGGGAGGGGAGGACGGAGTCACCTAGTGCAG,3410 fluorescence intensity (a.u.)
3,GTATCAAAGATCAAGTACGGAGTTGGATGACGTGAATGCTCGGAGTCACCTAGTGCAG,4650 fluorescence intensity (a.u.)
4,TCCTCCCTCACGTCGTCGCCATTACGCCTGACACGCTCCACGGAGTCACCTAGTGCAG,4380 fluorescence intensity (a.u.)
5,GGGAACCCTTCATGCAGCAACATGATCGAACCACGTCTTCCGGAGTCACCTAGTGCAG,3810 fluorescence intensity (a.u.)
6,CTTTCCCTCCGAATTGCTTATCATCTGCATGCATGATGCACGGAGTCACCTAGTGCAG,3590 fluorescence intensity (a.u.)
7,CAGAAACAATCAATATAAATCTCTTCCTTATAATTATAATCGGAGTCACCTAGTGCAG,15100 fluorescence intensity (a.u.)
8,AGCAGCAGCAGCTTGCCTGAGCTGAGCTGACAGATCAGTCCGGAGTCACCTAGTGCAG,3490 fluorescence intensity (a.u.)
9,CAATCTTTATCCCGTCATCCACCTCATTGTTCTTACCCAACGGAGTCACCTAGTGCAG,6130 fluorescence intensity (a.u.)
10,CCGCCTAGTGGCATCCCGCCGCATCAGCTCGGCGAGCTCGCGGAGTCACCTAGTGCAG,3340 fluorescence intensity (a.u.)
11,ATGATGATTGTTAGTGGATGATGATGTGTCATCTTGTTAACGGAGTCACCTAGTGCAG,8460 fluorescence intensity (a.u.)
12,CAATCAGTACAGACATCCTCGGTGTCGTTTTCAAAAGTCTCGGAGTCACCTAGTGCAG,3270 fluorescence intensity (a.u.)
13,TTAATCCCGGTTTTGTCCTACGTGGCTGCTAAGTCAGCGTCGGAGTCACCTAGTGCAG,29900 fluorescence intensity (a.u.)
14,AGCTCGTAGTGGAGTGAACGAGTGATGTGGAACAGGTAGGCGGAGTCACCTAGTGCAG,3570 fluorescence intensity (a.u.)
15,AGTTGTGGCAGCCACAAAATTGTGGTGGACAAATTTCTAGCGGAGTCACCTAGTGCAG,3720 fluorescence intensity (a.u.)
16,TTCGAGGCAGCGTATAGCATCGTGGCACGCAGAAGCTTGGCGGAGTCACCTAGTGCAG,3950 fluorescence intensity (a.u.)
17,GATCGTCGCGTCGTCGGCGTTGGCATCGGCATCCATGTGCCGGAGTCACCTAGTGCAG,3830 fluorescence intensity (a.u.)
18,TTAAGGTGTGTTTAGTTCCACGTCAAAATTAGAAGTTTGACGGAGTCACCTAGTGCAG,7090 fluorescence intensity (a.u.)
19,TTGCGCTTCGTCGACAGTTTCGCGGCCACGTTGTCCAAGGCGGAGTCACCTAGTGCAG,4890 fluorescence intensity (a.u.)
20,CAAGCAAGTTTAGCGTCGCGCGCGCTCGTGACGAGTCGTGCGGAGTCACCTAGTGCAG,4280 fluorescence intensity (a.u.)
21,CCGGCAAAAGTCTCTCCATCTTGTCATCGTCTTCTCCAGCCGGAGTCACCTAGTGCAG,4700 fluorescence intensity (a.u.)

# From paper PMC7819943, “Rice protein-binding microarrays: a tool to detect cis-acting elements near promoter regions in rice”
